Measurements reported in PubChem BioAssay AID652243 (Drosophila RNAi Screening Center, 2013).
The screen tested about 24,000 reagents; below is an unselected part of those that have a named target and a result. In the full data, 246 (1%) are marked active. 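Plates not normalised; calls are printed but the firefly/Renilla ratio behind them is not deposited; fold cut for lowering reported inconsistently.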 Raw values are not corrected between plates. Reagents against one gene are numbered here. The record does not give: the amount of reagent.

- Screen: 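Fly regulators of androgen-dependent reporter output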 (primary screen)
- Cell system: Drosophila S2R+ cells
- Knock-down reagent: long dsRNA against Drosophila genes
- Time to read-out: 72 h (48 h, then 24 h hormone)
- Treatment: synthetic androgen R1881 at 10 nM for 24 h
- Read-out: 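Per-well raw luminescence of the androgen-driven firefly reporter and of the Renilla control, two replicates each, without normalisation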
- Direction: firefly reporter light: higher = more light from androgen-responsive reporter; Renilla control light: higher = more constitutive control signal (cell number, transfection)
- Call rule: 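Hit when the log firefly-to-Renilla ratio dropped or increased by a fixed fold versus the mean of GFP or LacZ controls across duplicate plates; lowering cut given as 1.5 and as 3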
- Calls: active = hit: reporter lowered or raised; inactive = no hit

CG7101 #1 → firefly reporter light, replicate 1: 1.26e5; firefly reporter light, replicate 2: 1.40e5; Renilla control light, replicate 1: 1.54e6; Renilla control light, replicate 2: 1.38e6; Outcome: inactive
CG7101 #2 → firefly reporter light, replicate 1: 7.82e5; firefly reporter light, replicate 2: 1.17e6; Renilla control light, replicate 1: 1.13e6; Renilla control light, replicate 2: 1.45e6; Outcome: inactive
apolpp (apolipophorin) → firefly reporter light, replicate 1: 63013; firefly reporter light, replicate 2: 55632; Renilla control light, replicate 1: 5.62e5; Renilla control light, replicate 2: 3.42e5; Outcome: inactive
CG12011 #1 → firefly reporter light, replicate 1: 1.27e5; firefly reporter light, replicate 2: 1.63e5; Renilla control light, replicate 1: 2.62e6; Renilla control light, replicate 2: 2.28e6; Outcome: inactive
CG12011 #2 → firefly reporter light, replicate 1: 2.27e5; firefly reporter light, replicate 2: 2.96e5; Renilla control light, replicate 1: 4.53e5; Renilla control light, replicate 2: 6.26e5; Outcome: inactive
LpR2 (Lipophorin receptor 2) #1 → firefly reporter light, replicate 1: 2.48e5; firefly reporter light, replicate 2: 2.63e5; Renilla control light, replicate 1: 5.35e5; Renilla control light, replicate 2: 8.36e5; Outcome: inactive
LpR2 (Lipophorin receptor 2) #2 → firefly reporter light, replicate 1: 76466; firefly reporter light, replicate 2: 1.27e5; Renilla control light, replicate 1: 1.05e5; Renilla control light, replicate 2: 1.76e5; Outcome: inactive
LpR2 (Lipophorin receptor 2) #3 → firefly reporter light, replicate 1: 88449; firefly reporter light, replicate 2: 80311; Renilla control light, replicate 1: 4.90e5; Renilla control light, replicate 2: 4.99e5; Outcome: inactive
LpR2 (Lipophorin receptor 2) #4 → firefly reporter light, replicate 1: 3.01e5; firefly reporter light, replicate 2: 3.90e5; Renilla control light, replicate 1: 4.32e5; Renilla control light, replicate 2: 4.48e5; Outcome: inactive

Reformatted: 2 of the entries above.
{"gene knocked down":"CG12011","reagent":1,"firefly reporter light, replicate 1":1.27e5,"firefly reporter light, replicate 2":1.63e5,"Renilla control light, replicate 1":2.62e6,"Renilla control light, replicate 2":2.28e6,"Outcome":"inactive"}
{"gene knocked down":"CG12011","reagent":2,"firefly reporter light, replicate 1":2.27e5,"firefly reporter light, replicate 2":2.96e5,"Renilla control light, replicate 1":4.53e5,"Renilla control light, replicate 2":6.26e5,"Outcome":"inactive"}

The results go on.
GluRS-m (Glutamyl-tRNA synthetase, mitochondrial) #1 → firefly reporter light, replicate 1: 2.42e5; firefly reporter light, replicate 2: 1.50e5; Renilla control light, replicate 1: 1.94e6; Renilla control light, replicate 2: 1.12e6; Outcome: inactive
GluRS-m (Glutamyl-tRNA synthetase, mitochondrial) #2 → firefly reporter light, replicate 1: 4.28e5; firefly reporter light, replicate 2: 2.62e5; Renilla control light, replicate 1: 6.09e5; Renilla control light, replicate 2: 5.62e5; Outcome: inactive
CG9849 → firefly reporter light, replicate 1: 2.92e5; firefly reporter light, replicate 2: 2.71e5; Renilla control light, replicate 1: 2.18e6; Renilla control light, replicate 2: 2.52e6; Outcome: inactive
CG31689 → firefly reporter light, replicate 1: 4.32e5; firefly reporter light, replicate 2: 6.29e5; Renilla control light, replicate 1: 5.08e5; Renilla control light, replicate 2: 6.82e5; Outcome: inactive
CG30398 → firefly reporter light, replicate 1: 99605; firefly reporter light, replicate 2: 95426; Renilla control light, replicate 1: 2.92e5; Renilla control light, replicate 2: 2.21e5; Outcome: inactive
